This passage reports binding results from patent US20220242945A1.

In experiment [1] the target is recombinant cynomolgus monkey IL-23 (cynomolgus monkey). Briefly: cynomolgus monkey IL-23-IL-23R neutralisation ELISA. On the technique in general: In an ELISA, binding on a coated surface is turned into a signal by an enzyme label.
For experiment [2], the target named is IFNγ. Briefly: binding or inhibition ELISA (which of the two is not said).
Experiment [3] deals with IL-27. The description is as above.

These are yes or no findings as the source states them, for the method shown. For part of these data: Binding can be weak; no strength is given.

B1: 10E2 (VHH, not shown: small tags and cut ends)
VHH: EVQLVESGGGLAQAGGSLRLSCAPSGRAFSGSAMGWFRQVPGKEREFVGVIIWTGGYTYYADSVKGRFTISRDSAKNTVYLQMDSLKPEDTAVYYCAARTPNSSWFPTTLYEYDYWGQGTQVTVSS
Turning to B1, in experiment [1], the binding entry is on record as “binds”.

B2: ID-L253T (VHH)
VHH: DVQLVESGGGQVQPGGSLSLSCESSVSIWSFKVMGWFRQVPGKQRELVATITTGGSPDYSDSVKGRFTISRDYDKRTLYLQMNSLKPEDTAVYYCAGRLWAHITSSGHDVWGQGTQVTVSS
In the case of B2, the binding entry is on record as “binds” in experiment [1], “no binding” in experiment [2] and “no binding” in experiment [3].

B3: 12G1 (VHH, not shown: small tags and cut ends)
VHH: EVQLVESGGGLVQPGGSLRLSCAASVSIWSFKVMGWYRQVPGKQRELVATITTGGSPDYADSVKGRFTMSRDYDKRTVFLEMDSVKPEDAAVYYCNGRLWAHLTSSGHDVWGQGTRVTVSS
For B3, in experiment [1], the binding entry is on record as “binds”.

B4: 1E2 (VHH, not shown: small tags and cut ends)
VHH: EVQLVESGGGLVQPGGSLRLSCAASVSIWSFKVMGWYRQVPGKQRELVATITTGGSPDYADSVKGRFTMSRDYDKRTVFLEMDSVKPEDAAVYYCNGRLWAHLTSSGHDVWGQGTQVTVSS
Take B4: the binding entry in experiment [1] is given as “binds”.
